Measurements reported in article PMC4045235.

By UniProt entry, the sequences of proteins in these tests, tags left out.
UniProt P30153: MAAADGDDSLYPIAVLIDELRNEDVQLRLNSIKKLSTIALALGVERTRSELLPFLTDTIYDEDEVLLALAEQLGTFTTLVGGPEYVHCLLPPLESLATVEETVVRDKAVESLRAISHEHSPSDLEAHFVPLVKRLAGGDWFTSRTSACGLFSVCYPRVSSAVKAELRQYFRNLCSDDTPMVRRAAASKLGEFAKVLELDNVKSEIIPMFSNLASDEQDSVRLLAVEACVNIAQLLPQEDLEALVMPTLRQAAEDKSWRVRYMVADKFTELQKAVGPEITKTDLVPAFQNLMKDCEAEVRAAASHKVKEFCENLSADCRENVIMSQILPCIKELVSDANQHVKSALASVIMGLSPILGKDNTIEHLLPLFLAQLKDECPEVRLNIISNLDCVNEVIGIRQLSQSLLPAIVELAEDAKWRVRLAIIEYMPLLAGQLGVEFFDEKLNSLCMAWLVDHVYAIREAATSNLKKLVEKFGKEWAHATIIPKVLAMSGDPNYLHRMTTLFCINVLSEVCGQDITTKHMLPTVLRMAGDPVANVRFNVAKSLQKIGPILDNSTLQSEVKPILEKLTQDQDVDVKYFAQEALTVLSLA
UniProt P26599: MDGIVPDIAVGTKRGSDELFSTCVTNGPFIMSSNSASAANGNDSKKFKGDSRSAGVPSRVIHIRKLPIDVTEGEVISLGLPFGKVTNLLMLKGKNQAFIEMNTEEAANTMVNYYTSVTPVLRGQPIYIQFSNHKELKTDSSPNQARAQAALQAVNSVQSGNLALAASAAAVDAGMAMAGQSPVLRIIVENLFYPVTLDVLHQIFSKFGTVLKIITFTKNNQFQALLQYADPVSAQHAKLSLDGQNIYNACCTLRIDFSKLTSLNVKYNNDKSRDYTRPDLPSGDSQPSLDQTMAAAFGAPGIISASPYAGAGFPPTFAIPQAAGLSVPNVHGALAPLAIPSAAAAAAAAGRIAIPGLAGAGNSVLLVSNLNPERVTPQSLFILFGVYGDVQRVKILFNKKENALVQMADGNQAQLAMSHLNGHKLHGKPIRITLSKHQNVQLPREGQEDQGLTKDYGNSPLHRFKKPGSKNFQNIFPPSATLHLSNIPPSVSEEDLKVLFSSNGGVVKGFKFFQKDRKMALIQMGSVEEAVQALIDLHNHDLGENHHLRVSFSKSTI
UniProt Q14204: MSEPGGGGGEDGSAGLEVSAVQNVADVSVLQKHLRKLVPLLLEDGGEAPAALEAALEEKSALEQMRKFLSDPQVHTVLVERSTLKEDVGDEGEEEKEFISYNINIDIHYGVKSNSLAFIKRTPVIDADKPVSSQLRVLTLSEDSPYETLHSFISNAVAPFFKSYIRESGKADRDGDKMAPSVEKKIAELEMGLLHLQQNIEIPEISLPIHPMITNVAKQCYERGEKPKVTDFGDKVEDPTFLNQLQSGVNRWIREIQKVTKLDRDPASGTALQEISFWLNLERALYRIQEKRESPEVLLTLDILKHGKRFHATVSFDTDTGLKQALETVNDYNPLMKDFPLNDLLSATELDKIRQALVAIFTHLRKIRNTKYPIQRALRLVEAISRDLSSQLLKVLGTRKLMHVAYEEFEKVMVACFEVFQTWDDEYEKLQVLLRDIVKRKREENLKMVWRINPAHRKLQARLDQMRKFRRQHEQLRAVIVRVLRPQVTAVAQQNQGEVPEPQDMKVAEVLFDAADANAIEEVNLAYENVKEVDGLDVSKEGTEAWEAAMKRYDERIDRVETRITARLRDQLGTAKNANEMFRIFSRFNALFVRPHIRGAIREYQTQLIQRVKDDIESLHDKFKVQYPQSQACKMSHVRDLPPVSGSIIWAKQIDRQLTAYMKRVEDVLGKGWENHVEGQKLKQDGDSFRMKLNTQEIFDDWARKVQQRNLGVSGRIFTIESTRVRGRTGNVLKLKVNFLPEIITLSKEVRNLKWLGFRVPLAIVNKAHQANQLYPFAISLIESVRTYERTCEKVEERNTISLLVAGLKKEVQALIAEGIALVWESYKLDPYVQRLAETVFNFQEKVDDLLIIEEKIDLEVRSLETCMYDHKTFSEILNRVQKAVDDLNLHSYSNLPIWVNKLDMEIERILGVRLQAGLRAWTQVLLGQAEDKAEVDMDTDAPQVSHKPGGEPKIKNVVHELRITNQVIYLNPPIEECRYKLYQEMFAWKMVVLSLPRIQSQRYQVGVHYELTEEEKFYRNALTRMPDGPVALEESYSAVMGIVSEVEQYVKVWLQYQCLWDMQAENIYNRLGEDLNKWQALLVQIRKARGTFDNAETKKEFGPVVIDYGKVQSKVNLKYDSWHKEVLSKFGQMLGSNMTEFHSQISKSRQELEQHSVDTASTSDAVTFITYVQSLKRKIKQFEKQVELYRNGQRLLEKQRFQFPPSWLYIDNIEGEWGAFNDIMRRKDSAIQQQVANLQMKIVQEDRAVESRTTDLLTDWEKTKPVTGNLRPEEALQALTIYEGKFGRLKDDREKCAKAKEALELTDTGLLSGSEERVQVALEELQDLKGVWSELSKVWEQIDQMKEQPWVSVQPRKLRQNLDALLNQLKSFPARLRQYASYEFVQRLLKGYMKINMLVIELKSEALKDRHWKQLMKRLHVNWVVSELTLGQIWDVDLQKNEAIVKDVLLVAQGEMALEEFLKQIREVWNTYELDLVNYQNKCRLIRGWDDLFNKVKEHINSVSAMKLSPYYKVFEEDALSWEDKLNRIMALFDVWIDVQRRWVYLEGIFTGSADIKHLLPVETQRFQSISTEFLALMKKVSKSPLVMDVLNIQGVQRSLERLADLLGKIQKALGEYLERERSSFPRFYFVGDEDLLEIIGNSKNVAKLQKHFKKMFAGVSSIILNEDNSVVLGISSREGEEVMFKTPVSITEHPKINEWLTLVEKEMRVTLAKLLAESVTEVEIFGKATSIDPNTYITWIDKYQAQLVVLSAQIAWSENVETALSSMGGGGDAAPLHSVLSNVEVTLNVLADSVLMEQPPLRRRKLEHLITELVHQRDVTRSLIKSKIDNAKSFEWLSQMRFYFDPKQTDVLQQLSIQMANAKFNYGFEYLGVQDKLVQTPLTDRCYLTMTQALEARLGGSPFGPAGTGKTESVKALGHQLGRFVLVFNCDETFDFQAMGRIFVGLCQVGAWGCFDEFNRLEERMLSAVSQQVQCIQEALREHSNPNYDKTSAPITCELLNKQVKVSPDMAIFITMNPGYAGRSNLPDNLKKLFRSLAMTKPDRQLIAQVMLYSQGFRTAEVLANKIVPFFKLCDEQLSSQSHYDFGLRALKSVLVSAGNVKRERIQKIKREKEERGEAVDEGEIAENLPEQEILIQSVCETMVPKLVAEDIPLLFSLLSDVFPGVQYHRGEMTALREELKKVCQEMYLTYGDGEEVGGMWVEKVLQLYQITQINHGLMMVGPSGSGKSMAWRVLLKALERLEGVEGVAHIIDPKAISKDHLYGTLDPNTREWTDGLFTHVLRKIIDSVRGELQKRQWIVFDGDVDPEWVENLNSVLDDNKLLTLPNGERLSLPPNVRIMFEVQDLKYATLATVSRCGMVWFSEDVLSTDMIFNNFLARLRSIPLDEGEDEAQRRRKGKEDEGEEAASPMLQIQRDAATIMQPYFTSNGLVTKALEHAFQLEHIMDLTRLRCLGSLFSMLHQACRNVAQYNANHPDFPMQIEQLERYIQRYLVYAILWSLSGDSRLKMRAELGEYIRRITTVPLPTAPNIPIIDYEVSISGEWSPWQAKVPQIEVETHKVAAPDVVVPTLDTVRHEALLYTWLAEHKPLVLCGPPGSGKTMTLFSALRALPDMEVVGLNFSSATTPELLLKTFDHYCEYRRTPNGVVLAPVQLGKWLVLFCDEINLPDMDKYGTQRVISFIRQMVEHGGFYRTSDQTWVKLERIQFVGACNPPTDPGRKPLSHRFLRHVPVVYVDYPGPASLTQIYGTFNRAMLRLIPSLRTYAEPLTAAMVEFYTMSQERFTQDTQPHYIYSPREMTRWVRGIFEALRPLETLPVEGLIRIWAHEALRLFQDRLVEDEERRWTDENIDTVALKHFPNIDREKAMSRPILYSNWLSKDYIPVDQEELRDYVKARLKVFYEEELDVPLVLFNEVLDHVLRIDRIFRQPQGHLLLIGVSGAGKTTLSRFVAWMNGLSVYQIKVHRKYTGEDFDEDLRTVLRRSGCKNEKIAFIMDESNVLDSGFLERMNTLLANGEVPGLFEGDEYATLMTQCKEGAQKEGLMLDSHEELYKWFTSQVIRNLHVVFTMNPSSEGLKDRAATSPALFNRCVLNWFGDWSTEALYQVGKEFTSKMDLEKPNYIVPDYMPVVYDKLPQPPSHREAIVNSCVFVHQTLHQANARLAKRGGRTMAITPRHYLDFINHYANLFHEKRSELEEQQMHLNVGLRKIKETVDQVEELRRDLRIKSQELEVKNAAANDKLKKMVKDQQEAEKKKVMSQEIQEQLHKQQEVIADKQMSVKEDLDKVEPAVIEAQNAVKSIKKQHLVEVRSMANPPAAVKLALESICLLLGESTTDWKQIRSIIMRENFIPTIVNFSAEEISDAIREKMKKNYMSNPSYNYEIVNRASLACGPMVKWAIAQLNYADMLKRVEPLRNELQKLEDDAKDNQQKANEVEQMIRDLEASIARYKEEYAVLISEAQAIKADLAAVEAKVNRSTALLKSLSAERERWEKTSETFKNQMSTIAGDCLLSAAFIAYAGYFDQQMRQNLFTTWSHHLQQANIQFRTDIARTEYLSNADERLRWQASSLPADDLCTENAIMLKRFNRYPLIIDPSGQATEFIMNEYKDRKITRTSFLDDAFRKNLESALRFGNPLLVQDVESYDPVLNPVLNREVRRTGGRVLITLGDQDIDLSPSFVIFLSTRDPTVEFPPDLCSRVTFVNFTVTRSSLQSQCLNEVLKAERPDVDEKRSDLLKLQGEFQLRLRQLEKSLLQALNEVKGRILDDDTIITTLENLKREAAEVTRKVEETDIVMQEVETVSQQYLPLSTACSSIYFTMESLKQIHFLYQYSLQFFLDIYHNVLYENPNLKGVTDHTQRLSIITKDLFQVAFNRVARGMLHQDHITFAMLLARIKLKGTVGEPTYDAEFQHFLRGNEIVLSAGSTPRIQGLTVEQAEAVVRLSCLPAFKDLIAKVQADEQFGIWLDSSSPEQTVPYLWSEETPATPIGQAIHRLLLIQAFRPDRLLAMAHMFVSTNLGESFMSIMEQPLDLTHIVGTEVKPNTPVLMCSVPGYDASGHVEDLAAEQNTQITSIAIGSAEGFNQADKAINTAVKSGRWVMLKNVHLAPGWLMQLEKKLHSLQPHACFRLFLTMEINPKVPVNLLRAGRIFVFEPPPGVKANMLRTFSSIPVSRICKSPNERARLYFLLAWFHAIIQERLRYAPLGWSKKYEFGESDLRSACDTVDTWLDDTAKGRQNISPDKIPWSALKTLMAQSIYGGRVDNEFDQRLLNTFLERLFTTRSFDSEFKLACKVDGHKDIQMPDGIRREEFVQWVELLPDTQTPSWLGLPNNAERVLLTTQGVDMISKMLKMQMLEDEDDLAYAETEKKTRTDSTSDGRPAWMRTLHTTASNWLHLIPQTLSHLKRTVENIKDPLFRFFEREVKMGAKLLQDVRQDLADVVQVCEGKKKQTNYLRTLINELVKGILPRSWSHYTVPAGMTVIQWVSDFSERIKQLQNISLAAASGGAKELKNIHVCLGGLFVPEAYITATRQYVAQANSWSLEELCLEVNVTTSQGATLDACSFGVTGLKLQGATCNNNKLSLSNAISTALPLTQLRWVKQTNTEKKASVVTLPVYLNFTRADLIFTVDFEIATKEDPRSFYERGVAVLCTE

What was measured:
Assay in all cases: affinity purification with mass spectrometry; lysates of HEK293 cells transfected with CUL7, V5-OBSL1 or CCDC8, 24 h post-transfection; IP with CUL7, V5 or CCDC8 antibody on protein G Dynabeads; SDS-PAGE, GeLC-MS/MS; proteins found in no antibody control IPs removed; only proteins present in all three IPs kept
CCDC8 = biological target: T1, CCDC8 (UniProt Q9H0W5)
T1 sequence: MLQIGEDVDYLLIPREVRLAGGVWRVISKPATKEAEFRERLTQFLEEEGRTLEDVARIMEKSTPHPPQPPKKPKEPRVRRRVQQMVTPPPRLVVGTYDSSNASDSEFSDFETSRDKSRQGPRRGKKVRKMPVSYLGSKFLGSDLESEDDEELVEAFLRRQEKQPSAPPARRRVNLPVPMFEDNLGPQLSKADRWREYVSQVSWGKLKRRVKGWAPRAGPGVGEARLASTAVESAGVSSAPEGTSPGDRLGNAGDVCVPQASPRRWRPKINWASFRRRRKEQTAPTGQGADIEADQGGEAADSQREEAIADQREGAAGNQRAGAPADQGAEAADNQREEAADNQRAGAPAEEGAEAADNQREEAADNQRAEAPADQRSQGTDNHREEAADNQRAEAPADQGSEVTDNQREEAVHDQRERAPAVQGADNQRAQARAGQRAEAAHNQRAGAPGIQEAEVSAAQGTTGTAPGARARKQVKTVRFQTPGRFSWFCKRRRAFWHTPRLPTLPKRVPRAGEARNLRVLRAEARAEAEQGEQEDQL

CUL7 = CUL7 (UniProt Q14999)
V5-OBSL1 = V5-OBSL1 (UniProt O75147)

Measured: binding

PPP2R1A (from UniProt P30153 1-589)
binds: all assays above

PTBP1 (from UniProt P26599 1-557)
binds: all assays above

PRKDC (from UniProt P78527 1-4128)
binds: all assays above

DYNC1H1 (from UniProt Q14204 1-4646)
binds: all assays above

B1: PDIA6 (protein, UniProt Q15084 20-440)
chain: LYSSSDDVIELTPSNFNREVIQSDSLWLVEFYAPWCGHCQRLTPEWKKAATALKDVVKVGAVDADKHHSLGGQYGVQGFPTIKIFGSNKNRPEDYQGGRTGEAIVDAALSALRQLVKDRLGGRSGGYSSGKQGRSDSSSKKDVIELTDDSFDKNVLDSEDVWMVEFYAPWCGHCKNLEPEWAAAASEVKEQTKGKVKLAAVDATVNQVLASRYGIRGFPTIKIFQKGESPVDYDGGRTRSDIVSRALDLFSDNAPPPELLEIINEDIAKRTCEEHQLCVVAVLPHILDTGAAGRNSYLEVLLKLADKYKKKMWGWLWTEAGAQSELETALGIGGFGYPAMAAINARKMKFALLKGSFSEQGINEFLRELSFGRGSTAPVGGGAFPTIVEREPWDGRDGELPVEDDIDLSDVELDDLGKDEL
binds: all assays above

B2: SMC1A (protein, UniProt Q14683 1-1233)
chain: MGFLKLIEIENFKSYKGRQIIGPFQRFTAIIGPNGSGKSNLMDAISFVLGEKTSNLRVKTLRDLIHGAPVGKPAANRAFVSMVYSEEGAEDRTFARVIVGGSSEYKINNKVVQLHEYSEELEKLGILIKARNFLVFQGAVESIAMKNPKERTALFEEISRSGELAQEYDKRKKEMVKAEEDTQFNYHRKKNIAAERKEAKQEKEEADRYQRLKDEVVRAQVQLQLFKLYHNEVEIEKLNKELASKNKEIEKDKKRMDKVEDELKEKKKELGKMMREQQQIEKEIKEKDSELNQKRPQYIKAKENTSHKIKKLEAAKKSLQNAQKHYKKRKGDMDELEKEMLSVEKARQEFEERMEEESQSQGRDLTLEENQVKKYHRLKEEASKRAATLAQELEKFNRDQKADQDRLDLEERKKVETEAKIKQKLREIEENQKRIEKLEEYITTSKQSLEEQKKLEGELTEEVEMAKRRIDEINKELNQVMEQLGDARIDRQESSRQQRKAEIMESIKRLYPGSVYGRLIDLCQPTQKKYQIAVTKVLGKNMDAIIVDSEKTGRDCIQYIKEQRGEPETFLPLDYLEVKPTDEKLRELKGAKLVIDVIRYEPPHIKKALQYACGNALVCDNVEDARRIAFGGHQRHKTVALDGTLFQKSGVISGGASDLKAKARRWDEKAVDKLKEKKERLTEELKEQMKAKRKEAELRQVQSQAHGLQMRLKYSQSDLEQTKTRHLALNLQEKSKLESELANFGPRINDIKRIIQSREREMKDLKEKMNQVEDEVFEEFCREIGVRNIREFEEEKVKRQNEIAKKRLEFENQKTRLGIQLDFEKNQLKEDQDKVHMWEQTVKKDENEIEKLKKEEQRHMKIIDETMAQLQDLKNQHLAKKSEVNDKNHEMEEIRKKLGGANKEMTHLQKEVTAIETKLEQKRSDRHNLLQACKMQDIKLPLSKGTMDDISQEEGSSQGEDSVSGSQRISSIYAREALIEIDYGDLCEDLKDAQAEEEIKQEMNTLQQKLNEQQSVLQRIAAPNMKAMEKLESVRDKFQETSDEFEAARKRAKKAKQAFEQIKKERFDRFNACFESVATNIDEIYKALSRNSSAQAFLGPENPEEPYLDGINYNCVAPGKRFRPMDNLSGGEKTVAALALLFAIHSYKPAPFFVLDEIDAALDNTNIGKVANYIKEQSTCNFQAIVISLKEEFYTKAESLIGVYPEQGDCVISKVLTFDLTKYPDANPNPNEQ
binds: all assays above

B3: YWHAQ (protein, UniProt P27348 1-245)
chain: MEKTELIQKAKLAEQAERYDDMATCMKAVTEQGAELSNEERNLLSVAYKNVVGGRRSAWRVISSIEQKTDTSDKKLQLIKDYREKVESELRSICTTVLELLDKYLIANATNPESKVFYLKMKGDYFRYLAEVACGDDRKQTIDNSQGAYQEAFDISKKEMQPTHPIRLGLALNFSVFYYEILNNPELACTLAKTAFDEAIAELDTLNEDSYKDSTLIMQLLRDNLTLWTSDSAGEECDAAEGAEN
binds: all assays above

B4: JUP (protein, UniProt P14923 1-745)
chain: MEVMNLMEQPIKVTEWQQTYTYDSGIHSGANTCVPSVSSKGIMEEDEACGRQYTLKKTTTYTQGVPPSQGDLEYQMSTTARAKRVREAMCPGVSGEDSSLLLATQVEGQATNLQRLAEPSQLLKSAIVHLINYQDDAELATRALPELTKLLNDEDPVVVTKAAMIVNQLSKKEASRRALMGSPQLVAAVVRTMQNTSDLDTARCTTSILHNLSHHREGLLAIFKSGGIPALVRMLSSPVESVLFYAITTLHNLLLYQEGAKMAVRLADGLQKMVPLLNKNNPKFLAITTDCLQLLAYGNQESKLIILANGGPQALVQIMRNYSYEKLLWTTSRVLKVLSVCPSNKPAIVEAGGMQALGKHLTSNSPRLVQNCLWTLRNLSDVATKQEGLESVLKILVNQLSVDDVNVLTCATGTLSNLTCNNSKNKTLVTQNSGVEALIHAILRAGDKDDITEPAVCALRHLTSRHPEAEMAQNSVRLNYGIPAIVKLLNQPNQWPLVKATIGLIRNLALCPANHAPLQEAAVIPRLVQLLVKAHQDAQRHVAAGTQQPYTDGVRMEEIVEGCTGALHILARDPMNRMEIFRLNTIPLFVQLLYSSVENIQRVAAGVLCELAQDKEAADAIDAEGASAPLMELLHSRNEGTATYAAAVLFRISEDKNPDYRKRVSVELTNSLFKHDPAAWEAAQSMIPINEPYGDDMDATYRPMYSSDVPLDPLEMHMDMDGDYPIDTYSDGLRPPYPTADHMLA
binds: all assays above

B5: CCT2 (protein, UniProt P78371 1-535)
chain: MASLSLAPVNIFKAGADEERAETARLTSFIGAIAIGDLVKSTLGPKGMDKILLSSGRDASLMVTNDGATILKNIGVDNPAAKVLVDMSRVQDDEVGDGTTSVTVLAAELLREAESLIAKKIHPQTIIAGWREATKAAREALLSSAVDHGSDEVKFRQDLMNIAGTTLSSKLLTHHKDHFTKLAVEAVLRLKGSGNLEAIHIIKKLGGSLADSYLDEGFLLDKKIGVNQPKRIENAKILIANTGMDTDKIKIFGSRVRVDSTAKVAEIEHAEKEKMKEKVERILKHGINCFINRQLIYNYPEQLFGAAGVMAIEHADFAGVERLALVTGGEIASTFDHPELVKLGSCKLIEEVMIGEDKLIHFSGVALGEACTIVLRGATQQILDEAERSLHDALCVLAQTVKDSRTVYGGGCSEMLMAHAVTQLANRTPGKEAVAMESYAKALRMLPTIIADNAGYDSADLVAQLRAAHSEGNTTAGLDMREGTIGDMAILGITESFQVKRQVLLSAAEAAEVILRVDNIIKAAPRKRVPDHHPC
binds: all assays above

B6: HNRNPA0 (protein, UniProt Q13151 1-305)
chain: MENSQLCKLFIGGLNVQTSESGLRGHFEAFGTLTDCVVVVNPQTKRSRCFGFVTYSNVEEADAAMAASPHAVDGNTVELKRAVSREDSARPGAHAKVKKLFVGGLKGDVAEGDLIEHFSQFGTVEKAEIIADKQSGKKRGFGFVYFQNHDAADKAAVVKFHPIQGHRVEVKKAVPKEDIYSGGGGGGSRSSRGGRGGRGRGGGRDQNGLSKGGGGGYNSYGGYGGGGGGGYNAYGGGGGGSSYGGSDYGNGFGGFGSYSQHQSSYGPMKSGGGGGGGGSSWGGRSNSGPYRGGYGGGGGYGGSSF
binds: all assays above

B7: KHSRP (protein, UniProt Q92945 1-711)
chain: MSDYSTGGPPPGPPPPAGGGGGAGGAGGGPPPGPPGAGDRGGGGPGGGGPGGGSAGGPSQPPGGGGPGIRKDAFADAVQRARQIAAKIGGDAATTVNNSTPDFGFGGQKRQLEDGDQPESKKLASQGDSISSQLGPIHPPPRTSMTEEYRVPDGMVGLIIGRGGEQINKIQQDSGCKVQISPDSGGLPERSVSLTGAPESVQKAKMMLDDIVSRGRGGPPGQFHDNANGGQNGTVQEIMIPAGKAGLVIGKGGETIKQLQERAGVKMILIQDGSQNTNVDKPLRIIGDPYKVQQACEMVMDILRERDQGGFGDRNEYGSRIGGGIDVPVPRHSVGVVIGRSGEMIKKIQNDAGVRIQFKQDDGTGPEKIAHIMGPPDRCEHAARIINDLLQSLRSGPPGPPGGPGMPPGGRGRGRGQGNWGPPGGEMTFSIPTHKCGLVIGRGGENVKAINQQTGAFVEISRQLPPNGDPNFKLFIIRGSPQQIDHAKQLIEEKIEGPLCPVGPGPGGPGPAGPMGPFNPGPFNQGPPGAPPHAGGPPPHQYPPQGWGNTYPQWQPPAPHDPSKAAAAAADPNAAWAAYYSHYYQQPPGPVPGPAPAPAAPPAQGEPPQPPPTGQSDYTKAWEEYYKKIGQQPQQPGAPPQQDYTKAWEEYYKKQAQVATGGGPGAPPGSQPDYSAAWAEYYRQQAAYYGQTPGPGGPQPPPTQQGQQQAQ
binds: all assays above

Results are given in words; binding and its absence hold for the method and conditions named. In cells and extracts the contact can be indirect. Here binding means that the protein was enriched with, or labelled near, the bait; the list need not be complete.
